Measurements as given in US8765444 (BOARD OF TRUSTEES OF THE UNIVERSITY OF ILLINOIS, dated 2014).
These are yes or no findings as the source states them, for the method shown. Some results given as binding are weak or reduced against the parent protein; the word gives no strength. Sequences can lack the tags named with a protein.

Biological target: T1, FLAG-TBK1 (Homo sapiens (Human)) (UniProt Q9UHD2)
T1 sequence: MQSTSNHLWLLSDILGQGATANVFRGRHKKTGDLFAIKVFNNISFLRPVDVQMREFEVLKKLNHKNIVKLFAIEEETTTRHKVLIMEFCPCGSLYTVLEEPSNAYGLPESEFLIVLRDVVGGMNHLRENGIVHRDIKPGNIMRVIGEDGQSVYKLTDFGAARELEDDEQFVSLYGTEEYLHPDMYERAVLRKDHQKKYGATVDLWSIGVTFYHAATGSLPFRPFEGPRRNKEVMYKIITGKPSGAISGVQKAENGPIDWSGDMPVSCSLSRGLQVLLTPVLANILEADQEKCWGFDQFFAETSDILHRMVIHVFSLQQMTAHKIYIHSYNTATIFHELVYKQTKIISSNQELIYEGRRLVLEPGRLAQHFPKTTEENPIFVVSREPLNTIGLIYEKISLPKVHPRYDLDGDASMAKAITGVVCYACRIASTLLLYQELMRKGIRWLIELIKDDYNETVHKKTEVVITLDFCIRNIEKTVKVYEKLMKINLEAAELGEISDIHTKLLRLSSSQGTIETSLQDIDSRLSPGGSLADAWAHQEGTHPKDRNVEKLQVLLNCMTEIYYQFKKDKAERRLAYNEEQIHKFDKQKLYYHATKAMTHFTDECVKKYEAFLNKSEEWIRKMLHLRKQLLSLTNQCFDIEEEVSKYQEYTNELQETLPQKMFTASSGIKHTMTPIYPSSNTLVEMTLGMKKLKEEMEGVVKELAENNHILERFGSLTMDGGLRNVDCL
Experiment: anti-FLAG immunoprecipitation of the FLAG-TBK1 complex from transfected 293T cells, blot

B1: IRF3 (protein, UniProt Q14653 1-427, looked up)
chain: MGTPKPRILPWLVSQLDLGQLEGVAWVNKSRTRFRIPWKHGLRQDAQQEDFGIFQAWAEATGAYVPGRDKPDLPTWKRNFRSALNRKEGLRLAEDRSKDPHDPHKIYEFVNSGVGDFSQPDTSPDTNGGGSTSDTQEDILDELLGNMVLAPLPDPGPPSLAVAPEPCPQPLRSPSLDNPTPFPNLGPSENPLKRLLVPGEEWEFEVTAFYRGRQVFQQTISCPEGLRLVGSEVGDRTLPGWPVTLPDPGMSLTDRGVMSYVRHVLSCLGGGLALWRAGQWLWAQRLGHCHTYWAVSEELLPNSGHGPDGEVPKDKEGGVFDLGPFIVDLITFTEGSGRSPRYALWFCVGESWPQDQPWTKRLVMVKVVPTCLRALVEMARVGGASSLENTVDLHISNSHPLSLTSDQYKAYLQDLVEGMDFQGPGES
- binding: binds
